# Test results as given in the supplement of paper PMC8728848.
# The other results are listed elsewhere or left out.
# B1: PX14379D-pdi-530-26-530 (Parabacteroides distasonis) (protein)
# chain: DETVYDKLPADDFGQSTAELNALIGNSHNTMKKFWTEYMHLSECSGSMAVTPTRRGGDWYDGGQYREIYMHTWTSQTSRVKSAWKAATEAIGTCNEAIRKLQNSEILTEEEKAQDVADLRGVRAFWIYVMMDYWGNIPLLTEFHPTDKVFPGNSSRQEVFDWLIQEVEEIKDICPPATTENYGSFTQGAAYSLLAKLYLNAEAWGVTFSGNAYQKVIDNCDKVMAMGYILEPNWKDNFSVTNENSKEAILAATFSSSDTGNDGNVKNELHNNTLHYKDYLSLGITASGTWNGICAQPEYVRLFDEEDARLDGTFLTGLMIDKSTGKPIMTDHNNELNHTIDVNMIPGMEYDGTNWSAVEQHDGARCFKWEFASDLTSSMGNDFHIFRLADIYLMKAEALLRGGGSVSEATALVNTIRERGYGNSDHNYATVTLKEVQLERRLELAWEVYSRQDDIRFGCFTTGMWPQSNCERKADDYLKLLPVSQDAWQVNPNLKQNPGYAAFSK
# Tests used:
# Assay in all cases: glycan array binding signal (z-score within array); higher = stronger binding
# Conditions in all cases: glycan notation: IUPAC condensed, linker removed
# Neu5Ac(a2-8)Neu5Ac = target: Neu5Ac(a2-8)Neu5Ac
# Procedure, shortened: (§1)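 From the Consortium for Functional Glycomics database, 3228 arrays were curated, keeping only those whose protein sequence was available. Binding is given as a within-array Z-score averaged across arrays sharing a protein sequence and across linkers. Negative Z-scores can be read as non-binding.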
# [1] = target: Neu5Ac(a2-8)Neu5Ac(a2-3)Gal(b1-3)GalNAc(b1-4)[Neu5Ac(a2-3)]Gal(b1-4)Glc
# Procedure, shortened: as §1
# [2] = target: Neu5Ac(a2-8)Neu5Ac(a2-3)Gal(b1-3)GalNAc(b1-4)[Neu5Ac(a2-8)Neu5Ac(a2-3)]Gal(b1-4)Glc
# Procedure, shortened: as §1
# [3] = target: Neu5Ac(a2-8)Neu5Ac(a2-3)Gal(b1-4)Glc
# Procedure, shortened: as §1
# [4] = target: Neu5Ac(a2-8)Neu5Ac(a2-3)Gal(b1-4)GlcNAc
# Procedure, shortened: as §1
# [5] = target: Neu5Ac(a2-8)Neu5Ac(a2-3)[Gal(b1-3)GalNAc(b1-4)]Gal(b1-4)Glc
# Procedure, shortened: as §1
# [6] = target: Neu5Ac(a2-8)Neu5Ac(a2-3)[GalNAc(b1-4)]Gal(b1-4)Glc
# Procedure, shortened: as §1
# [7] = target: Neu5Ac(a2-8)Neu5Ac(a2-8)Neu5Ac
# Procedure, shortened: as §1
# [8] = target: Neu5Ac(a2-8)Neu5Ac(a2-8)Neu5Ac(a2-3)Gal(b1-4)Glc
# Procedure, shortened: as §1
# [9] = target: Neu5Ac(a2-8)Neu5Ac(a2-8)Neu5Ac(a2-3)[Gal(b1-3)GalNAc(b1-4)]Gal(b1-4)Glc
# Procedure, shortened: as §1
# [10] = target: Neu5Ac(a2-8)Neu5Ac(a2-8)Neu5Ac(a2-3)[GalNAc(b1-4)]Gal(b1-4)Glc
# Procedure, shortened: as §1
# [11] = target: Neu5Ac(a2-8)Neu5Ac(a2-8)Neu5Ac(a2-8)Neu5Ac(a2-3)[GalNAc(b1-4)]Gal(b1-4)Glc
# Procedure, shortened: as §1
# [12] = target: Neu5Ac(a2-8)Neu5Gc(a2-3)Gal(b1-4)GlcNAc
# Procedure, shortened: as §1
# [13] = target: Neu5Ac(b2-6)Gal(b1-4)GlcNAc
# Procedure, shortened: as §1
# Neu5Ac(b2-6)GalNAc = target: Neu5Ac(b2-6)GalNAc
# Procedure, shortened: as §1
# [14] = target: Neu5Ac9Ac(a2-3)Gal(b1-3)GlcNAc
# Procedure, shortened: as §1
# [15] = target: Neu5Ac9Ac(a2-3)Gal(b1-4)GlcNAc
# Procedure, shortened: as §1
# [16] = target: Neu5Ac9Ac(a2-6)Gal(b1-4)GlcNAc
# Procedure, shortened: as §1
# [17] = target: Neu5Gc(a2-3)Gal(b1-3)GlcNAc
# Procedure, shortened: as §1
# [18] = target: Neu5Gc(a2-3)Gal(b1-3)[Fuc(a1-4)]GlcNAc
# Procedure, shortened: as §1
# Neu5Gc(a2-3)Gal(b1-4)Glc = target: Neu5Gc(a2-3)Gal(b1-4)Glc
# Procedure, shortened: as §1
# [19] = target: Neu5Gc(a2-3)Gal(b1-4)GlcNAc
# Procedure, shortened: as §1
# [20] = target: Neu5Gc(a2-3)Gal(b1-4)GlcNAc(b1-3)Gal(b1-4)GlcNAc(b1-2)Man(a1-3)[Neu5Gc(a2-3)Gal(b1-4)GlcNAc(b1-3)Gal(b1-4)GlcNAc(b1-2)Man(a1-6)]Man(b1-4)GlcNAc(b1-4)GlcNAc
# Procedure, shortened: as §1
# [21] = target: Neu5Gc(a2-3)Gal(b1-4)[Fuc(a1-3)]GlcNAc
# Procedure, shortened: as §1
# [22] = target: Neu5Gc(a2-6)Gal(b1-4)GlcNAc
# Procedure, shortened: as §1
# Neu5Gc(a2-6)GalNAc = target: Neu5Gc(a2-6)GalNAc
# Procedure, shortened: as §1
# [23] = target: Neu5Gc(a2-8)Neu5Ac(a2-3)Gal(b1-4)GlcNAc
# Procedure, shortened: as §1
# [24] = target: Neu5Gc(a2-8)Neu5Gc(a2-3)Gal(b1-4)GlcNAc
# Procedure, shortened: as §1
# [25] = target: Neu5Gc(a2-8)Neu5Gc(a2-3)Gal(b1-4)GlcNAc(b1-3)Gal(b1-4)GlcNAc
# Procedure, shortened: as §1
# [26] = target: Neu5Gc(a2-8)Neu5Gc(a2-6)Gal(b1-4)GlcNAc
# Procedure, shortened: as §1
# [27] = target: Neu5Gc(b2-6)Gal(b1-4)GlcNAc
# Procedure, shortened: as §1
binder,measurement,setting,value
B1,glycan array binding signal (z-score),Neu5Ac(a2-8)Neu5Ac,-0.204
same,glycan array binding signal (z-score),[1],0.057
same,glycan array binding signal (z-score),[2],0.181
same,glycan array binding signal (z-score),[3],-0.765
same,glycan array binding signal (z-score),[4],-0.127
same,glycan array binding signal (z-score),[5],-0.342
same,glycan array binding signal (z-score),[6],-1.17
same,glycan array binding signal (z-score),[7],-0.825
same,glycan array binding signal (z-score),[8],0.309
same,glycan array binding signal (z-score),[9],-0.501
same,glycan array binding signal (z-score),[10],-0.621
same,glycan array binding signal (z-score),[11],-0.481
same,glycan array binding signal (z-score),[12],12.8
same,glycan array binding signal (z-score),[13],-0.314
same,glycan array binding signal (z-score),Neu5Ac(b2-6)GalNAc,-0.517
same,glycan array binding signal (z-score),[14],-0.269
same,glycan array binding signal (z-score),[15],-0.365
same,glycan array binding signal (z-score),[16],0.184
same,glycan array binding signal (z-score),[17],-0.296
same,glycan array binding signal (z-score),[18],-0.578
same,glycan array binding signal (z-score),Neu5Gc(a2-3)Gal(b1-4)Glc,0.25
same,glycan array binding signal (z-score),[19],-0.002
same,glycan array binding signal (z-score),[20],1.7
same,glycan array binding signal (z-score),[21],-0.444
same,glycan array binding signal (z-score),[22],-0.019
same,glycan array binding signal (z-score),Neu5Gc(a2-6)GalNAc,-1.21
same,glycan array binding signal (z-score),[23],-0.206
same,glycan array binding signal (z-score),[24],0.148
same,glycan array binding signal (z-score),[25],-0.78
same,glycan array binding signal (z-score),[26],-0.04
same,glycan array binding signal (z-score),[27],-0.722

# In a second layout: entries from further up.
binder	measurement	setting	value
B1	glycan array binding signal (z-score)	Neu5Gc(a2-3)Gal(b1-4)Glc	0.25
same	glycan array binding signal (z-score)	[26]	-0.04
